According to patent publication US20190316211A1, “ONCOGENIC ALTERNATIVE SPLICING SWITCH OF PACE4 IN CANCER” (SOCIETE DE COMMERCIALISATION DES PRODUITS DE LA RECHERCHE …, priority 2016, published 2019):
No constants are given. Whether binding was seen depends on the method and setting. A result given as binding can be weak or reduced; the word gives no strength. Sequences can lack the tags named with a protein.

Target: Vps13
Assay: V5 immunoprecipitation from HEK293-FT lysates, SWATH-MS

B1: V5-tagged PACE4-FL (enzyme, not shown: small tags and cut ends)
chain: QVRSDPQALYFNDPIWSNMWYLHCGDKNSRCRSEMNVQAAWKRGYTGKNVVVTILDDGIERNHPDLAPNYDSYASYDVNGNDYDPSPRYDASNENKHGTRCAGEVAASANNSYCIVGIAYNAKIGGIRMLDGDVTDVVEAKSLGIRPNYIDIYSASWGPDDDGKTVDGPGRLAKQAFEYGIKKGRQGLGSIFVWASGNGGREGDYCSCDGYTNSIYTISVSSATENGYKPWYLEECASTLATTYSSGAFYERKIVTTDLRQRCTDGHTGTSVSAPMVAGIIALALEANSQLTWRDVQHLLVKTSRPAHLKASDWKVNGAGHKVSHFYGFGLVDAEALVVEAKKWTAVPSQHMCVAASDKRPRSIPLVQVLRTTALTSACAEHSDQRVVYLEHVVVRTSISHPRRGDLQIYLVSPSGTKSQLLAKRLLDLSNEGFTNWEFMTVHCWGEKAEGQWTLEIQDLPSQVRNPEKQGKLKEWSLILYGTAEHPYHTFSAHQSRSRMLELSAPELEPPKAALSPSQVEVPEDEEDYTAQSTPGSANILQTSVCHPECGDKGCDGPNADQCLNCVHFSLGSVKTSRKCVSVCPLGYFGDTAARRCRRCHKGCETCSSRAATQCLSCRRGFYHHQEMNTCVTLCPAGFYADESQKNCLKCHPSCKKCVDEPEKCTVCKEGFSLARGSCIPDCEPGTYFDSELIRCGECHHTCGTCVGPGREECIHCAKNFHFHDWKCVPACGEGFYPEEMPGLPHKVCRRCDENCLSCAGSSRNCSRCKTGFTQLGTSCITNHTCSNADETFCEMVKSNRLCERKLFIQFCCRTCLLAG
  binding: binds
